Test results as given in the supplement of paper PMC8728848.
This is one part of the list.

Legend:
Experiment in all cases: glycan array binding signal (z-score within array); higher = stronger binding
Settings in all cases: glycan notation: IUPAC condensed, linker removed
[1] = target: GlcNAc(b1-3)Gal(b1-3)GalNAc
In short: (§1)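 Negative Z-scores can be read as non-binding. The Z-score is calculated within each array and then averaged across arrays of one protein sequence at different concentrations or buffers and across linkers. Arrays, 3228 in all, were curated from the Consortium for Functional Glycomics database and kept only where the protein sequence was available.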

GlcNAc(b1-3)Gal(b1-4)Glc = target: GlcNAc(b1-3)Gal(b1-4)Glc
In short: as §1

[2] = target: GlcNAc(b1-3)Gal(b1-4)GlcNAc
In short: as §1

[3] = target: GlcNAc(b1-3)Gal(b1-4)GlcNAc(b1-3)Gal(b1-4)GlcNAc
In short: as §1

GlcNAc(b1-3)GalNAc = target: GlcNAc(b1-3)GalNAc
In short: as §1

GlcNAc(b1-3)Man = target: GlcNAc(b1-3)Man
In short: as §1

[4] = target: GlcNAc(b1-3)[GlcNAc(b1-4)][GlcNAc(b1-6)]GlcNAc
In short: as §1

[5] = target: GlcNAc(b1-3)[GlcNAc(b1-6)]Gal(b1-4)GlcNAc
In short: as §1

[6] = target: GlcNAc(b1-3)[GlcNAc(b1-6)]GalNAc
In short: as §1

[7] = target: GlcNAc(b1-4)Gal(b1-4)GlcNAc
In short: as §1

GlcNAc(b1-4)GlcNAc = target: GlcNAc(b1-4)GlcNAc
In short: as §1

[8] = target: GlcNAc(b1-4)GlcNAc(b1-4)GlcNAc
In short: as §1

[9] = target: GlcNAc(b1-4)GlcNAc(b1-4)GlcNAc(b1-4)GlcNAc(b1-4)GlcNAc
In short: as §1

[10] = target: GlcNAc(b1-4)GlcNAc(b1-4)GlcNAc(b1-4)GlcNAc(b1-4)GlcNAc(b1-4)GlcNAc
In short: as §1

[11] = target: GlcNAc(b1-4)[GlcNAc(b1-6)]GalNAc
In short: as §1

[12] = target: GlcNAc(b1-6)Gal(b1-4)GlcNAc
In short: as §1

GlcNAc(b1-6)GalNAc = target: GlcNAc(b1-6)GalNAc
In short: as §1

GlcNAc3Prop(b1-4)GlcNAc = target: GlcNAc3Prop(b1-4)GlcNAc
In short: as §1

[13] = target: GlcNAc6S(b1-3)Gal(b1-4)GlcNAc
In short: as §1

Kdn(a2-3)Gal(b1-3)GalNAc = target: Kdn(a2-3)Gal(b1-3)GalNAc
In short: as §1

Kdn(a2-3)Gal(b1-3)GlcNAc = target: Kdn(a2-3)Gal(b1-3)GlcNAc
In short: as §1

Kdn(a2-3)Gal(b1-4)Glc = target: Kdn(a2-3)Gal(b1-4)Glc
In short: as §1

Kdn(a2-3)Gal(b1-4)GlcNAc = target: Kdn(a2-3)Gal(b1-4)GlcNAc
In short: as §1

[14] = target: Kdn(a2-3)Gal(b1-4)[Fuc(a1-3)]GlcNAc
In short: as §1

Kdn(a2-6)Gal(b1-4)GlcNAc = target: Kdn(a2-6)Gal(b1-4)GlcNAc
In short: as §1

[15] = target: Man(a1-2)Man(a1-2)Man(a1-3)Man
In short: as §1

[16] = target: Man(a1-2)Man(a1-2)Man(a1-6)[Man(a1-3)]Man
In short: as §1

Man(a1-2)Man(a1-3)Man = target: Man(a1-2)Man(a1-3)Man
In short: as §1

[17] = target: Man(a1-2)Man(a1-3)[Man(a1-2)Man(a1-6)]Man
In short: as §1

[18] = target: Man(a1-2)Man(a1-3)[Man(a1-2)Man(a1-6)]Man(a1-6)[Man(a1-2)Man(a1-2)Man(a1-3)]Man
In short: as §1

[19] = target: Man(a1-2)Man(a1-3)[Man(a1-2)Man(a1-6)]Man(a1-6)[Man(a1-2)Man(a1-2)Man(a1-3)]Man(b1-4)GlcNAc(b1-4)GlcNAc
In short: as §1

[20] = target: Man(a1-2)Man(a1-3)[Man(a1-6)]Man(a1-6)[Man(a1-2)Man(a1-3)]Man(b1-4)GlcNAc(b1-4)GlcNAc
In short: as §1

[21] = target: Man(a1-2)Man(a1-6)[Man(a1-3)]Man(a1-6)[Man(a1-2)Man(a1-2)Man(a1-3)]Man
In short: as §1

[22] = target: Man(a1-2)Man(a1-6)[Man(a1-3)]Man(a1-6)[Man(a1-2)Man(a1-2)Man(a1-3)]Man(b1-4)GlcNAc(b1-4)GlcNAc
In short: as §1

Man(a1-3)[Man(a1-6)]Man = target: Man(a1-3)[Man(a1-6)]Man
In short: as §1

[23] = target: Man(a1-3)[Man(a1-6)]Man(a1-6)[Man(a1-2)Man(a1-3)]Man(b1-4)GlcNAc(b1-4)GlcNAc
In short: as §1

B1: Intelectin-1a (Mus musculus) (protein)
chain: AEWSHPQFEKAEENLDTNRWGNSFFSSLPRSCKEIKQEHTKAQDGLYFLRTKNGVIYQTFCDMTTAGGGWTLVASVHENNMRGKCTVGDRWSSQQGNRADYPEGDGNWANYNTFGSAEAATSDDYKNPGYFDIQAENLGIWHVPNKSPLHNWRKSSLLRYRTFTGFLQHLGHNLFGLYKKYPVKYGEGKCWTDNGPALPVVYDFGDARKTASYYSPSGQREFTAGYVQFRVFNNERAASALCAGVRVTGCNTEHHCIGGGGFFPEGNPVQCGDFASFDWDGYGTHNGYSSSRKITEAAVLLFYR
B1 was tested, and the “glycan array binding signal (z-score)” value [1] was -0.724, the “glycan array binding signal (z-score)” value (GlcNAc(b1-3)Gal(b1-4)Glc) was -0.427 and the “glycan array binding signal (z-score)” value [2] was -0.295. For the same binder, the “glycan array binding signal (z-score)” value [3] was -0.263, the “glycan array binding signal (z-score)” value (GlcNAc(b1-3)GalNAc) was -0.491 and the “glycan array binding signal (z-score)” value (GlcNAc(b1-3)Man) was -0.353. The “glycan array binding signal (z-score)” value [4] was -1.44, the “glycan array binding signal (z-score)” value [5] was -0.779 and the “glycan array binding signal (z-score)” value [6] was -1. The “glycan array binding signal (z-score)” value [7] was -0.454, the “glycan array binding signal (z-score)” value (GlcNAc(b1-4)GlcNAc) was 0.113 and the “glycan array binding signal (z-score)” value [8] was -1.03. For the same binder, the “glycan array binding signal (z-score)” value [9] was -0.617, the “glycan array binding signal (z-score)” value [10] was -0.826 and the “glycan array binding signal (z-score)” value [11] was 1.47. The “glycan array binding signal (z-score)” value [12] was -0.534, the “glycan array binding signal (z-score)” value (GlcNAc(b1-6)GalNAc) was -0.351 and the “glycan array binding signal (z-score)” value (GlcNAc3Prop(b1-4)GlcNAc) was -0.731. The “glycan array binding signal (z-score)” value [13] was -0.273, the “glycan array binding signal (z-score)” value (Kdn(a2-3)Gal(b1-3)GalNAc) was -1.01 and the “glycan array binding signal (z-score)” value (Kdn(a2-3)Gal(b1-3)GlcNAc) was -0.959. For the same binder, the “glycan array binding signal (z-score)” value (Kdn(a2-3)Gal(b1-4)Glc) was 0.266, the “glycan array binding signal (z-score)” value (Kdn(a2-3)Gal(b1-4)GlcNAc) was 0.581 and the “glycan array binding signal (z-score)” value [14] was -0.718. The “glycan array binding signal (z-score)” value (Kdn(a2-6)Gal(b1-4)GlcNAc) was -1.2, the “glycan array binding signal (z-score)” value [15] was -0.748 and the “glycan array binding signal (z-score)” value [16] was 1.86. The “glycan array binding signal (z-score)” value (Man(a1-2)Man(a1-3)Man) was -0.431, the “glycan array binding signal (z-score)” value [17] was -0.995 and the “glycan array binding signal (z-score)” value [18] was -0.621. The “glycan array binding signal (z-score)” value [19] was 0.197, the “glycan array binding signal (z-score)” value [20] was -0.451 and the “glycan array binding signal (z-score)” value [21] was 0.17. For the same binder, the “glycan array binding signal (z-score)” value [22] was -1.13, the “glycan array binding signal (z-score)” value (Man(a1-3)[Man(a1-6)]Man) was 0.005 and the “glycan array binding signal (z-score)” value [23] was -0.401.
